Record: PubChem BioAssay AID652243 (Drosophila RNAi Screening Center, 2013)
In all, the deposit lists about 24,000 reagents; this is a random part of those with a known target gene and a result. Over the whole deposit, 246 (1%) were called active. 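Plates not normalised; calls are printed but the firefly/Renilla ratio behind them is not deposited; fold cut for lowering reported inconsistently.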 Raw values vary from plate to plate and are shown uncorrected. A number with no mark means an inactive call. Reagents against one gene are numbered here. A plus sign joins genes that one reagent is predicted to hit. Not stated in the record: the amount of reagent.

- Aim: 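Fly genes required for human androgen receptor driven transcription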 (primary screen)
- System: Drosophila S2R+ cells
- Knock-down reagent: long dsRNA against Drosophila genes
- Duration: 72 h (48 h, then 24 h hormone)
- Conditions: synthetic androgen R1881 at 10 nM for 24 h
- Measurement: 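Per-well raw luminescence of the androgen-driven firefly reporter and of the Renilla control, two replicates each, without normalisation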
- Scale: firefly reporter light: higher = more light from androgen-responsive reporter; Renilla control light: higher = more constitutive control signal (cell number, transfection)
- Call rule: 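Hit when the log firefly-to-Renilla ratio dropped or increased by a fixed fold versus the mean of GFP or LacZ controls across duplicate plates; lowering cut given as 1.5 and as 3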
- Calls: active = hit: reporter lowered or raised; inactive = no hit

target	dsRNA no.	firefly reporter light, replicate 1	firefly reporter light, replicate 2	Renilla control light, replicate 1	Renilla control light, replicate 2
cnir	1	1.68e5	1.10e5	1.15e6	8.96e5
cnir	2	5.01e5	3.87e5	9.39e5	8.50e5
fs(1)M3	1	1.12e5	85662	1.02e6	7.76e5
fs(1)M3	2	5.71e5	6.62e5	1.36e6	1.35e6
CG33510	1	4.87e5	5.61e5	1.67e6	1.76e6
CG17562	1	1.52e5	1.61e5	2.05e6	2.64e6
nAChRalpha4	1	2.54e5	2.40e5	5.09e5	5.46e5
nAChRalpha4	2	3.91e5	4.13e5	5.46e5	6.37e5
LamC	1	9.26e5	8.42e5	2.71e6	2.32e6
LamC	2	2.91e5	2.82e5	4.58e5	2.51e5
Ndc1	1	93843	69690	6.82e5	9.56e5
Crg-1	1	6.80e5	1.07e6	8.99e5	1.28e6
Crg-1	2	1.02e6	9.47e5	1.20e6	9.16e5
CR42546	1	3.14e5	2.88e5	1.81e6	1.16e6
cuff	1	3.69e5	1.84e5	1.82e6	1.74e6
alpha-Est4	1	74401	56849	1.11e6	1.20e6
alpha-Est4	2	3.39e5	2.81e5	6.63e5	6.59e5
hrg	1	52684	1.50e5	6.94e5	1.23e6
Or22a	1	1.53e5	1.72e5	7.95e5	9.57e5
Or22a	2	5.02e5	5.16e5	8.52e5	7.01e5
Or49b	1	3.06e5	2.51e5	1.78e6	1.83e6
CG4502	1	7.29e5	6.28e5	1.29e6	1.07e6
CG10347	1	3.61e5	4.50e5	3.88e6	3.79e6
CG4151	1	3.65e5	4.15e5	2.56e6	1.73e6
Ccdc85	1	9.34e5	6.21e5	1.30e6	1.96e6

The list goes on, starting with the last 6 of the part before.
target	dsRNA no.	firefly reporter light, replicate 1	firefly reporter light, replicate 2	Renilla control light, replicate 1	Renilla control light, replicate 2
Or22a	2	5.02e5	5.16e5	8.52e5	7.01e5
Or49b	1	3.06e5	2.51e5	1.78e6	1.83e6
CG4502	1	7.29e5	6.28e5	1.29e6	1.07e6
CG10347	1	3.61e5	4.50e5	3.88e6	3.79e6
CG4151	1	3.65e5	4.15e5	2.56e6	1.73e6
Ccdc85	1	9.34e5	6.21e5	1.30e6	1.96e6
sip3	1	49473	76719	5.18e5	4.20e5
sip3	2	3.69e5	4.39e5	6.86e5	6.86e5
Pdp	1	79733	63487	5.30e5	3.50e5
Pdp	2	3.18e5	3.22e5	5.89e5	5.26e5
CG2336	1	47632	80658	1.16e6	1.25e6
Orai	1	1.03e6	8.03e5	1.77e6	1.42e6
CG33769	1	1.95e5	2.95e5	2.71e6	3.13e6
S1P	1	2.86e5	2.10e5	2.88e6	2.35e6
CG13083	1	66854	77367	1.05e6	8.76e5
CG13083	2	2.83e5	3.86e5	3.57e5	7.69e5
CG34135 + Nasp + CG11768	1	73603	63334	1.16e6	1.22e6
CG34135 + Nasp + CG11768	2	7.70e5	8.45e5	1.73e6	2.05e6
CG34135 + Nasp + CG11768	3	3.18e5	3.29e5	5.03e5	6.87e5
CG34135 + Nasp + CG11768	4	7.76e5	8.24e5	1.29e6	1.29e6
Tsp42Ee	1	4.27e5	6.25e5	2.10e6	1.60e6
Tsp42Ee	2	4.74e5	4.36e5	1.43e6	1.48e6
Mo25	1	14295	10104	1.38e5	1.42e5
UQCR-6.4	1	59723	67728	9.34e5	9.34e5
UQCR-6.4	2	5.90e5	3.88e5	9.38e5	8.47e5
CG11155	1	1.04e5	98680	7.59e5	7.31e5
CG11155	2	4.31e5	4.06e5	8.75e5	8.75e5
CG4467	1	1.98e5	1.97e5	2.94e6	2.39e6
coil	1	6.95e5	7.57e5	1.96e6	2.00e6
coil	2	4.78e5	3.23e5	6.69e5	5.83e5
CG32700	1	1.87e5	2.22e5	2.41e6	2.63e6
CG32700	2	2.63e5	3.05e5	2.99e6	2.94e6
asRNA:CR42871 + CG6661	1	5.37e5	5.38e5	1.64e6	1.51e6
asRNA:CR42871 + CG6661	2	7.66e5	7.22e5	1.66e6	1.31e6
ND-B14.5B	1	1.43e5	1.55e5	1.29e6	1.36e6
CG7059	1	4.60e5	4.28e5	4.23e6	4.25e6
CG7059	2	5.39e5	5.91e5	1.14e6	9.36e5
CG11837	1	50670	46013	3.81e5	3.87e5
CG3032	1	1.64e5	1.48e5	2.51e6	1.93e6
CG3032	2	9.19e5	7.61e5	9.83e5	1.08e6
